# Results of single-concentration screens

By UniProt entry, the sequences of proteins in these tests, tags left out. Residues count along the entry.
UniProt Q4DA54, 1-478: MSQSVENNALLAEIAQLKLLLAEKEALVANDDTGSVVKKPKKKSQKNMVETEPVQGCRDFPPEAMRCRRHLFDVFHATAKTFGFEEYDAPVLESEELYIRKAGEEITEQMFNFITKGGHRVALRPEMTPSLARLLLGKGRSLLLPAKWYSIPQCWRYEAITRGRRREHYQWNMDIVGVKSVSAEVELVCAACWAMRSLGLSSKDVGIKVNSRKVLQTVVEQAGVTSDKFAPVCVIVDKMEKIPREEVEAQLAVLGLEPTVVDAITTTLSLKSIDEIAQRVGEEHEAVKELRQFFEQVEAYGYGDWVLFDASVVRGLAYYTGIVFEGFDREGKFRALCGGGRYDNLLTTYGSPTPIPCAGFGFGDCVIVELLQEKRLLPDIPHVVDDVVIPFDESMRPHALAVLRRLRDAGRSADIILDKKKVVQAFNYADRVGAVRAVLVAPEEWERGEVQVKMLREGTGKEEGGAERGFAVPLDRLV

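Histidine-tRNA ligase, Trypanosoma cruzi CL Brener (UniProt Q4DA54). Enzyme assay of histidyl-tRNA synthetase; the read-out is not stated. Concentration: 30 µM. Direction is inferred from retests: higher values go with stronger inhibition. About 69,000 compounds were tested under these conditions; 0.045% (about 31) showed 50% or more at least once.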

Each number is a percent effect as filed.
The record does not define 0% and 100%; most values in the screen are far below 50% and negative numbers occur (in some assays of this library far below -100).
Compounds were drawn at random from those tested, without regard to their results.

compound | percent effect
CCc1cc(NC(C)(C)C)nc(N2CCOCC2)n1 | 7.895
Cc1nn(C)c2nc(N(C)CC3CCN(CC(C)C)C3)sc12 (configuration not stated) | 8.511
O=C(c1ccoc1)N1CCCC2(CCC(=O)N2Cc2cccnc2)C1 (configuration not stated) | 5.376
Cc1cnc(N2CCC3(CC2)CC3CNC(=O)N(C)C)nc1 (configuration not stated) | 6.897
NCCn1cc(C(=O)N2CCNC(=O)C2c2cccc(F)c2)nn1 (configuration not stated) | 5.155
CC(C(=O)NC1CCCCC1)N1CCc2[nH]nc(C(F)(F)F)c2C1 (configuration not stated) | 5.172
CC(C)c1cc(C(=O)N(C)Cc2cccc3ncccc23)n(C)n1 | 0
CC(C)C1Nc2ccccc2C(=O)N1CC(=O)Nc1nc2c(s1)CCC2 (configuration not stated) | 14.85
CN(C)S(=O)(=O)N1CC(c2ccnc(Nc3ccccn3)n2)C1 | 3.448
CN(C)CCN(Cc1ccccc1)C(=O)C1=NNC(=O)CC1 | 12.64
O=C(CN1CCS(=O)(=O)CC1)NC1CCCc2ccccc21 (configuration not stated) | 5.844
COc1ncccc1C(=O)NCC(C)Oc1cccnc1 (configuration not stated) | 1.667
Cc1cc(C2CCCN(S(=O)(=O)N(C)C)C2)ccn1 (configuration not stated) | 3.876
c1cnc(N2CCC(NCc3cnc(C4CCC4)s3)CC2)nc1 | 0.9804
Cc1ncc(COc2ccc(N(C)S(C)(=O)=O)cc2)s1 | -0.6369
O=C(CCn1ccccc1=O)Nc1ccc(F)c(Cl)c1 | -1.695
COCc1noc(-c2ccc(N3CCCC3c3ccc(F)cc3)nc2)n1 (configuration not stated) | 2.041
O=C(C1CCOCC1)N1CCN(CC2CC2)c2ncccc2C1 | 2.041
O=c1cnc2ccccc2n1CCCn1cccn1 | -4.848
CN(C)C(=O)CN1CC[C@@H]2O[C@@H](COCc3cccnc3)CC[C@@H]21 | 6.122
CN(C)CC(=O)NC1CC(=O)N(CCc2ccccc2)C1 (configuration not stated) | 3.093
Cc1noc(C)c1C1CCCN1CCC(=O)N1CCc2ccccc2C1 (configuration not stated) | 14.84
Cc1ccc(N2CCCC(NC(=O)Cc3csc(C)n3)C2=O)cc1 (configuration not stated) | 11.6
COCC1CC2(CCN(Cc3nccn3C)CC2)CN1c1ncccn1 (configuration not stated) | 8.824
O=C(CN1CCOc2ccc(Cl)cc21)NCCCn1ccnc1 | 2.646
CCN1CC(COc2ccc(OC)cc2)Oc2ccncc2S1(=O)=O (configuration not stated) | 4.624
Cc1nc(N2C[C@@H](CN3CCCCC3)[C@@H](CO)C2)c2sccc2n1 | -0.5435
COc1ccc(C)cc1C(C)NC(=O)NCCCn1cncn1 (configuration not stated) | 7.925
O=S(=O)(c1cc(F)ccc1F)N1CCCC1c1ccco1 (configuration not stated) | 0
CC(C)(CNC(=O)Nc1nccs1)N1CCOCC1 | 5.422
O=C(C1CC=CC1)N1CC[C@@H]2O[C@H](COCC3CCOCC3)CC[C@@H]21 | 0.9804
Cc1ccc(C(C)N(C)CCS(=O)(=O)CCC(N)=O)cc1 (configuration not stated) | 3.448
CCc1ccccc1CN1CCN(Cc2ncc[nH]2)[C@H]2CS(=O)(=O)C[C@H]21 | -0.8333
CCc1nc(CCNC(=O)C2CC2)sc1C | 4.348
Cc1cc(NC(=O)NCC2(O)CCCC2)ccn1 | 0.4808
Fc1ccc(OCc2nnc([C@H]3CCN(Cc4ccncc4)C3)o2)cc1 | 11.88
Cc1cccc(C)c1OC1CN(C(=O)C2CCN(C(=O)N(C)C)CC2)C1 | 11.69
O=C(C1CCCN(CCc2ccc3c(c2)CCO3)C1)N1CCCC1 (configuration not stated) | 5.473
Cc1cc(NC(=O)N2CCN(C)CC2C)n(Cc2ccccc2)n1 (configuration not stated) | 5.911
O=C(NCCCO)C1(CC2CC(c3ccc(F)cc3)=NO2)CCOCC1 (configuration not stated) | 0.2857
COCCN1C[C@H]2CN(C(=O)NCc3ccccc3)CCN2C1=O | 14.85
CS(=O)(=O)N1CCC(Oc2ccc(C#N)cc2)CC1 | 0.8772
Cc1cccc(-c2c[nH]c(C3CCCN3C(=O)Cn3cc(C)cn3)n2)c1 (configuration not stated) | 2.941
CNC(=O)c1cccc(CNC(=O)C2CC(=O)N(CCN(C)C)C2)c1 (configuration not stated) | 6.224
Clc1snnc1CN1CCN(c2nccs2)CC1 | 1.754
Cc1nn(CC(=O)N2CCCN(c3cccnn3)CC2)c(C)c1Cl | -0.8333
Cc1cn2c(n1)CCC(NC(=O)c1ccc(CS(C)(=O)=O)cc1)C2 (configuration not stated) | 1.141
COc1ccc(S(=O)(=O)Cc2cc(C)on2)cc1 | 3.061
COc1cccc(CC(=O)N2CCCC(c3nncn3C)C2)c1 (configuration not stated) | 4.36
COCCN1CCc2c(CNC(=O)c3nccn3C)cncc2C1 | -2.062
CCc1ocnc1C(=O)N1CCC(n2cc(-c3ccsc3)nn2)CC1 | 6.897
Cc1noc(NC(=O)c2ccc(Br)o2)n1 | 4.624
COc1cccc(-c2cccc(N3CCC(N[C@@H]4CCOC4)CC3)c2)c1 | 7
Cc1nc(C)n(CC(C)C(=O)N2CCC(CN3CCOCC3)CC2)n1 (configuration not stated) | 2.02
O=C(N1CCOCC1)[C@@]12CCO[C@@H]1CCN(Cc1ccccc1F)C2 | 1.639
CN(Cc1cn2ccccc2n1)C1CCCN(c2cccnn2)C1 (configuration not stated) | 1.901
CC1(C)CNC(=O)c2nc(C3CCCN(S(C)(=O)=O)C3)[nH]c2C1 (configuration not stated) | 4.545
CCc1ccc(S(=O)(=O)Nc2ccc(F)cc2C(=O)O)s1 | -0.8746
COC(CNC(=O)C1CCN(S(C)(=O)=O)CC1)c1ccc(C)s1 (configuration not stated) | 1.212
Cc1cnc(C)c(N2CCN(CC3CCCO3)CC2)n1 (configuration not stated) | 3.96
COCc1cnc2n1CCN(C(=O)C1=CCCCC1)C2C (configuration not stated) | -3.825
Cc1nn(C)c(C)c1-c1ccnc(N(C)Cc2nc(C(C)C)no2)n1 | 12.71
Cc1nccn1C1CCCN(C(=O)CCc2nc(C(C)C)no2)C1 (configuration not stated) | 0
Cc1cc2c(=O)n3c(nc2s1)CCN(Cc1cnn(C)c1C)CC3 | 0.5405
NC(=O)NC(=O)CCn1ccc(-c2ccc(F)cc2)n1 | 4.902
c1ncn(CC2CCCN(Cc3nc(C4CC4)no3)C2)n1 (configuration not stated) | 3.008
O=C(c1ccc[nH]1)N1CCCn2cnc(COCC3CC3)c2C1 | 4.082
COCC1COCCC12CCN(S(=O)(=O)c1ccccc1C)CC2 (configuration not stated) | -3.911
CCc1ccc(Cn2nccc2NC(=O)C2CCS(=O)(=O)C2)cc1 (configuration not stated) | 17.79
CC(C)c1nc(-c2ccc(=O)[nH]n2)n(-c2ccc3c(c2)OCO3)n1 | 6.667
O=C(Cc1ccccc1)NC[C@H]1Cn2ccnc2CO1 | 6.522
CC(NC(=O)CCCOc1ccc(F)cc1)c1nnc2n1CCC2 (configuration not stated) | 5.523
CNC(=O)CN1CCC(CN(C)Cc2ccc(C)cc2C)CC1 | 4
Cc1nc(CCNC(=O)C(N)c2c(C)n[nH]c2C)sc1C (configuration not stated) | 4.741
Cc1cc(-c2nc(C3(NC(=O)OC(C)(C)C)CCC3)no2)on1 | 2.521
COc1ccc(C2=Nn3c(CN)nnc3-c3ccccc3C2)cc1 | 6.211
Cc1ccc(CNC(=O)CCNS(C)(=O)=O)cc1 | 0
CSc1ccccc1CN1C[C@H]2C(=O)N(CC3CC3)C[C@@]2(C(=O)O)C1 | -1.087
CCOCc1nn(CC2CC2)c2c1CN(Cc1cccs1)CC2 | 1.105
C=C(C)CN(CC)C(=O)CN(C)C1CCc2ccccc21 (configuration not stated) | 10.06
Cc1ccnc(C2(C)CCCN2S(=O)(=O)c2cccnc2)n1 (configuration not stated) | 3.03
COCC(=O)N1CCCC1c1cccc(Cc2ccccc2F)n1 (configuration not stated) | -1.064
O=C(O)c1c(-c2ccncc2)ncc2c1CCN(CC1CCOC1)C2 (configuration not stated) | 4.523
CCCc1nnc(SCc2cc(=O)n3c4c(sc3n2)CCCC4)[nH]1 | 8.911
COCC(=O)N1CCC2(CCCN(Cc3ccc(Cl)cc3)CC2)CC1 | -8.696
Cc1ncoc1C(=O)N1CCc2[nH]nc(-c3ccc4c(c3)OCO4)c2C1 | 0
Cn1nccc1-c1cccc(CC2CCN(S(C)(=O)=O)C2)n1 (configuration not stated) | 0
O=C(O)C1CCCN(C(=O)CCn2ccc3c(Br)cccc32)C1 (configuration not stated) | 4.878
Cc1ccc(-c2nc(CNCC3CN(C)CCO3)cs2)o1 (configuration not stated) | 6.464
O=C(O)c1c(-c2cccnc2)ncc2c1CCN(Cc1cccnc1)C2 | 2.479
CS(=O)(=O)NCc1nnc2n1CCN(CC1CC1)C2 | 3.867

The first 7 entries again:

{"compound": "CCc1cc(NC(C)(C)C)nc(N2CCOCC2)n1", "percent effect": 7.895}
{"compound": "Cc1nn(C)c2nc(N(C)CC3CCN(CC(C)C)C3)sc12", "stereo": "configuration not stated", "percent effect": 8.511}
{"compound": "O=C(c1ccoc1)N1CCCC2(CCC(=O)N2Cc2cccnc2)C1", "stereo": "configuration not stated", "percent effect": 5.376}
{"compound": "Cc1cnc(N2CCC3(CC2)CC3CNC(=O)N(C)C)nc1", "stereo": "configuration not stated", "percent effect": 6.897}
{"compound": "NCCn1cc(C(=O)N2CCNC(=O)C2c2cccc(F)c2)nn1", "stereo": "configuration not stated", "percent effect": 5.155}
{"compound": "CC(C(=O)NC1CCCCC1)N1CCc2[nH]nc(C(F)(F)F)c2C1", "stereo": "configuration not stated", "percent effect": 5.172}
{"compound": "CC(C)c1cc(C(=O)N(C)Cc2cccc3ncccc23)n(C)n1", "percent effect": 0}

Data taken from ChEMBL document CHEMBL3988442, “University of Dundee, Small-Polar-MMV Screening Library” (2021).